Experimental data from patent US20220323406A1, “METHODS AND COMPOSITIONS FOR DIFFERENTIATING STEM CELLS” (Massachusetts Institute of Technology, priority 2019, published 2022).
Values joined by “and” are separate entries in the source; they are usually repeats but may differ in a detail not shown here. Equal values may be shown once. Where a name gives a salt, the structure may show the parent alone. The name of at least one read-out is uncertain.

Assays:
ENR+CD organoids [1] = experiment: Secondary (validation) screen: ATP (CTG) assay, 2.5-D 384-well ENR+CD organoids; format: cell-based, mouse; conditions: 6-day ENR+CD, vs ENR+CD+DMSO
Method: (§1) Drugs were tested at a narrowed dose range around each treatment's identified optimal dose from the primary screen (4× below, 2× above and below).
(§2) High-throughput screening.
(§3) Secondary lysozyme secretion assay screen. Confirmatory secondary screening with primary hits was performed using the above 384-well plate method. The screen was conducted with 4-plate replicates with a base media of ENR+CD. Media was supplemented with compound at day 0 and day 3 (n=8 well replicates per dose) at four different doses: two-fold above, two-fold below, and four-fold below the optimal final dose for each respective treatment. Additionally, each plate carried a large number of ENR+DMSO or ENR+CD+DMSO (vehicle) control wells (n=100 for ATP, and n=25 for LYZ.NS and LYZ.S) for robust normalization. ATP, non-stimulated lysozyme activity and CCh-stimulated lysozyme activity was again measured and the collected data was again processed in a custom R-script, per primary screen with slight modification. Values were log10 transformed, and a plate-wise FC was calculated for each well based on the median value of ENR+CD+DMSO (vehicle) control wells to normalize plate to plate variability.

[2] = system: ENR+CD organoids (ISC to Paneth cell differentiation); experiment: Secondary (validation) screen: LYZ.NS basal lysozyme secretion, 2.5-D 384-well ENR+CD organoids; format: cell-based, mouse; conditions: 6-day ENR+CD, vs ENR+CD+DMSO
Method: as §1, §2, §3

[3] = system: ENR+CD organoids (ISC to Paneth cell differentiation); experiment: Secondary (validation) screen: LYZ.S CCh-stimulated lysozyme secretion, 2.5-D 384-well ENR+CD organoids; format: cell-based, mouse; conditions: 6-day ENR+CD, vs ENR+CD+DMSO
Method: as §1, §2, §3

ENR+CD organoids [4] = experiment: Primary screen: ATP (CellTiter-Glo 3D, CTG) cell number/viability, 2.5-D 384-well ENR+CD organoids;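 further: compounds given at plating and again on day 3 over a 6-day differentiation from ENR+CV stem-cell-enriched precursors, ATP measured on day 6, plate median as control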
[5] = system: ENR+CD organoids (ISC to Paneth cell differentiation); experiment: Primary screen: CCh-stimulated lysozyme secretion LYZ.S, 2.5-D 384-well ENR+CD organoid differentiation; format: cell-based, mouse; conditions: Table 5A primary screen; strictly standardized mean difference; four lines per treatment = four doses, dose not given
Source text: as §2

[6] = primary screen, dose 0.08 uM, standard z score
[7] = primary screen, dose 0.40 uM, standard z score
[8] = primary screen, dose 2.00 uM, standard z score
[9] = primary screen, dose 10.00 uM, standard z score

SMILES: COc1ccc(C2CNC(=O)C2)cc1OC1CCCC1 (centres unmarked) [Rolipram]
- Z.CTG (ENR+CD organoids [1]; 0.50 uM): 0.477
- repSSMD.CTG (ENR+CD organoids [1]; 0.50 uM): 0.368
- Z.CTG (ENR+CD organoids [1]; 1.00 uM): 1.198
- repSSMD.CTG (ENR+CD organoids [1]; 1.00 uM): 0.832
- Z.CTG (ENR+CD organoids [1]; 2.00 uM): 1.819
- repSSMD.CTG (ENR+CD organoids [1]; 2.00 uM): 1.420
- Z.CTG (ENR+CD organoids [1]; 4.00 uM): 0.583
- repSSMD.CTG (ENR+CD organoids [1]; 4.00 uM): 0.447
- Z.LYZ.NS ([2]; 0.50 uM): −0.342
- repSSMD.LYZ.NS ([2]; 0.50 uM): −0.478
- Z.LYZ.NS ([2]; 1.00 uM): 1.213
- repSSMD.LYZ.NS ([2]; 1.00 uM): 1.715
- Z.LYZ.NS ([2]; 2.00 uM): 0.793
- repSSMD.LYZ.NS ([2]; 2.00 uM): 0.950
- Z.LYZ.NS ([2]; 4.00 uM): −0.407
- repSSMD.LYZ.NS ([2]; 4.00 uM): −0.543
- Z.LYZ.S ([3]; 0.50 uM): −0.631
- repSSMD.LYZ.S ([3]; 0.50 uM): −0.936
- Z.LYZ.S ([3]; 1.00 uM): 0.801
- repSSMD.LYZ.S ([3]; 1.00 uM): 1.107
- Z.LYZ.S ([3]; 2.00 uM): 0.227
- repSSMD.LYZ.S ([3]; 2.00 uM): 0.169
- Z.LYZ.S ([3]; 4.00 uM): −0.543
- repSSMD.LYZ.S ([3]; 4.00 uM): −0.736
- Z.CTG (ENR+CD organoids [4]; [6]): 0.850
- Z.CTG (ENR+CD organoids [4]; [7]): 0.370
- Z.CTG (ENR+CD organoids [4]; [8]): 0.945
- Z.CTG (ENR+CD organoids [4]; [9]): 0.714
- SSMD.LYZ.S [5]: 1.167 and 0.794 and 1.021 and 1.372

SMILES: COc1cc(Nc2c(C#N)cnc3cc(OCCCN4CCN(C)CC4)c(OC)cc23)c(Cl)cc1Cl [Bosutinib (SKI-606), Bosutinib]
- Z.CTG (ENR+CD organoids [1]; 0.02 uM): 1.944
- repSSMD.CTG (ENR+CD organoids [1]; 0.02 uM): 1.251
- Z.CTG (ENR+CD organoids [1]; 0.04 uM): 1.254
- repSSMD.CTG (ENR+CD organoids [1]; 0.04 uM): 0.876
- Z.CTG (ENR+CD organoids [1]; 0.08 uM): 0.735
- repSSMD.CTG (ENR+CD organoids [1]; 0.08 uM): 0.584
- Z.LYZ.NS ([2]; 0.02 uM): 1.061
- repSSMD.LYZ.NS ([2]; 0.02 uM): 1.620
- Z.LYZ.NS ([2]; 0.04 uM): −0.535
- repSSMD.LYZ.NS ([2]; 0.04 uM): −0.666
- Z.LYZ.NS ([2]; 0.08 uM): −0.562
- repSSMD.LYZ.NS ([2]; 0.08 uM): −0.903
- repSSMD.LYZ.S ([3]; 0.02 uM): 1.147
- Z.LYZ.S ([3]; 0.04 uM): −0.663
- repSSMD.LYZ.S ([3]; 0.04 uM): −0.977
- Z.LYZ.S ([3]; 0.08 uM): −0.554
- repSSMD.LYZ.S ([3]; 0.08 uM): −0.892
- Z.CTG (standard z score) (ENR+CD organoids [4]; primary screen, dose 0.08 uM): 1.499
- Z.CTG (standard z score) (ENR+CD organoids [4]; primary screen, dose 0.40 uM): 0.720
- Z.CTG (standard z score) (ENR+CD organoids [4]; primary screen, dose 2.00 uM): −0.405
- Z.CTG (standard z score) (ENR+CD organoids [4]; primary screen, dose 10.00 uM): −1.595

SMILES: CC(C)(C)NC(=O)[C@H]1CC[C@H]2[C@@H]3CC[C@H]4NC(=O)C=C[C@]4(C)[C@H]3CC[C@]12C [Finasteride]
- Z.CTG (ENR+CD organoids [1]; 0.02 uM): 0.596
- repSSMD.CTG (ENR+CD organoids [1]; 0.02 uM): 0.358
- Z.CTG (ENR+CD organoids [1]; 0.04 uM): −1.623
- repSSMD.CTG (ENR+CD organoids [1]; 0.04 uM): −0.994
- Z.CTG (ENR+CD organoids [1]; 0.08 uM): −0.099
- repSSMD.CTG (ENR+CD organoids [1]; 0.08 uM): −0.083
- Z.LYZ.NS ([2]; 0.02 uM): 0.445
- repSSMD.LYZ.NS ([2]; 0.02 uM): 0.362
- Z.LYZ.NS ([2]; 0.04 uM): −1.510
- repSSMD.LYZ.NS ([2]; 0.04 uM): −2.570
- Z.LYZ.NS ([2]; 0.08 uM): −1.522
- repSSMD.LYZ.NS ([2]; 0.08 uM): −2.177
- Z.LYZ.S ([3]; 0.02 uM): −0.147
- repSSMD.LYZ.S ([3]; 0.02 uM): −0.197
- Z.LYZ.S ([3]; 0.04 uM): −1.996
- repSSMD.LYZ.S ([3]; 0.04 uM): −3.825
- Z.LYZ.S ([3]; 0.08 uM): −1.859
- repSSMD.LYZ.S ([3]; 0.08 uM): −2.574
- Z.CTG (ENR+CD organoids [4]; primary screen, standard z score, dose 0.08 uM): 0.360
- Z.CTG (ENR+CD organoids [4]; primary screen, standard z score, dose 0.40 uM): −0.092
- Z.CTG (ENR+CD organoids [4]; primary screen, standard z score, dose 2.00 uM): 0.174
- Z.CTG (ENR+CD organoids [4]; primary screen, standard z score, dose 10.00 uM): −0.097

SMILES: C[C@H](NCc1ccc(OCc2cccc(F)c2)cc1)C(N)=O [Safinamide Mesylate]
- Z.CTG (ENR+CD organoids [1]; 0.50 uM): −0.127
- repSSMD.CTG (ENR+CD organoids [1]; 0.50 uM): −0.118
- Z.CTG (ENR+CD organoids [1]; 1.00 uM): −0.743
- repSSMD.CTG (ENR+CD organoids [1]; 1.00 uM): −0.547
- Z.CTG (ENR+CD organoids [1]; 2.00 uM): −0.098
- repSSMD.CTG (ENR+CD organoids [1]; 2.00 uM): −0.060
- Z.CTG (ENR+CD organoids [1]; 4.00 uM): −0.022
- repSSMD.CTG (ENR+CD organoids [1]; 4.00 uM): −0.013
- Z.LYZ.NS ([2]; 0.50 uM): −1.244
- repSSMD.LYZ.NS ([2]; 0.50 uM): −1.484
- Z.LYZ.NS ([2]; 1.00 uM): −1.847
- repSSMD.LYZ.NS ([2]; 1.00 uM): −2.985
- Z.LYZ.NS ([2]; 2.00 uM): −0.368
- repSSMD.LYZ.NS ([2]; 2.00 uM): −0.556
- Z.LYZ.NS ([2]; 4.00 uM): −0.272
- repSSMD.LYZ.NS ([2]; 4.00 uM): −0.431
- Z.LYZ.S ([3]; 0.50 uM): −1.637
- repSSMD.LYZ.S ([3]; 0.50 uM): −2.413
- Z.LYZ.S ([3]; 1.00 uM): −2.259
- repSSMD.LYZ.S ([3]; 1.00 uM): −3.571
- Z.LYZ.S ([3]; 2.00 uM): −0.757
- repSSMD.LYZ.S ([3]; 2.00 uM): −1.243
- Z.LYZ.S ([3]; 4.00 uM): −0.658
- repSSMD.LYZ.S ([3]; 4.00 uM): −0.942
- Z.CTG (ENR+CD organoids [4]; [6]): 0.633
- Z.CTG (ENR+CD organoids [4]; [7]): 0.575
- Z.CTG (ENR+CD organoids [4]; [8]): 0.627
- Z.CTG (ENR+CD organoids [4]; [9]): 0.883
- SSMD.LYZ.S [5]: 1.182 and 1.469 and 1.483 and 0.917
